Reference: PubChem BioAssay AID504648 (National Center for Advancing Translational Sciences (NCATS), 2011)
“And” between values parts separate entries of the source, which are not always exact repeats. Equal values may be shown once. About 610 (0.16%) of roughly 390,000 compounds were called active. This list was built around the results that the source calls inconclusive (neither active nor inactive); the mix of calls is not that of the screen. Calls come from the whole dose curve; as a rule, active = well fitted inhibition curve with a large enough effect; inconclusive = small, poorly fitted or top-dose-only effect, or effect the other way, or another doubt; inactive = no such curve, though single readings can be large or run the other way. Potencies of inconclusive entries are doubtful fits and often do not repeat.

Assay: Nrf2 qHTS screen for inhibitors: counterscreen for cytotoxicity
Conditions: A549 ARE-Fluc cells, CellTiter-Fluor viability, 18-24 h; series mostly up to 46 µM
Method in brief: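 A549 ARE-Fluc cells in 5% FBS OPTI-MEM, 5000 cells/well, rested 2 h then exposed to compounds in concentration-response for 18-24 h at 37 °C. Viability by CellTiter-Fluor fluorescence (Ex 405/Em 525) after 30 min; luciferase luminescence (BugLite, 15 min, RT) read afterwards.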
Potency is the fitted concentration of half-maximal effect.

| Compound | Potency |
| --- | --- |
| Cc1ccc(-c2n[nH]c3c2C(c2cccc(O)c2)N(c2ccc(C(=O)O)cc2)C3=O)cc1 (centres undefined) | inactive |
| COc1ccc(C(=O)N2N=C(c3ccc(NS(C)(=O)=O)cc3)CC2c2cccs2)cc1 (centres undefined) | inconclusive: 16.4 µM [falling, partial curve, poor fit] |
| Cc1cc(C)n2nc(C(=O)OCC(=O)c3c[nH]c4ccccc34)nc2n1 | inconclusive: 6.51 µM [activator, partial curve, poor fit] |
| CCOc1ccc(N(C)c2ccc(/C=C3/SC(=S)NC3=O)cc2)cc1 | inconclusive: 18.4 µM [falling, single point] |
| CCCN(CCC)S(=O)(=O)c1ccc2c(c1)N(CC(=O)NCc1ccc(F)cc1Cl)C(=O)CS2 | inactive |
| O=C(Nc1cccc(-c2csc(Nc3ccccc3)n2)c1)c1ccccc1 | inconclusive: 29.1 µM [falling, partial curve, poor fit] |
| Fc1ccc(NC(=S)Nc2ccc(Br)cc2)cc1 | inconclusive: 29.1 µM [falling, partial curve, poor fit] |
| CCCOc1ccc(CN(C(=O)c2cccc(OC)c2)C2CCS(=O)(=O)C2)cc1 (centres undefined) | inactive |
| COc1ccc(-c2cc(C(=O)Nc3c(C)nn(Cc4ccc(Cl)cc4)c3C)no2)cc1 | inconclusive: 6.51 µM [falling, single point] |
| CCCCNc1c(-c2cccc(-c3ccc(OC)cc3)c2)nc2cc(C)ccn12 | inconclusive: 29.1 µM [falling, single point] |
| Cc1nn(-c2ccccc2)c(C)c1C(=O)OCC(=O)c1c(N)n(CC(C)C)c(=O)n(C)c1=O | inconclusive: 2.06 µM [falling, partial curve] |
| COC/C=C/C1=CC2=CC(=O)C(C)(OC(=O)c3cnc4ccccc4n3)C(=O)C2=CN1c1ccccc1 (centres undefined) | inconclusive: 32.6 µM [falling, partial curve, poor fit] |
| Cn1cc(-c2ccc(Cl)cc2)cc(C#N)c1=O | inactive |
| CC1C(C)N(C(=O)CCl)c2ccccc2N1C(=O)CCl (centres undefined) | inconclusive: 14.6 µM [falling, partial curve, poor fit] |
| COc1ccc(Cn2c(=O)[nH]c3cc(C(=O)NCCCN4CCCCC4)ccc3c2=O)cc1 | inconclusive: 6.51 µM [activator, full curve] |
| CCN1CCN(C(=O)CN2C(=O)COc3ccc(S(=O)(=O)N4CCOCC4)cc32)CC1 | inactive |
| CC1(C)N=c2ccc([N+](=O)[O-])c(N)c2=[N+]1[O-] | inconclusive: 23.1 µM [falling, partial curve, poor fit] |
| CCOC(=O)CNC(=O)CSc1nnc(NC(=O)c2ccc(C)cc2)s1 | inactive |
| CC(C)c1ccccc1NC(=O)COC(=O)CCN1C(=O)/C(=C\C=C\c2ccccc2)SC1=S | inconclusive: 18.4 µM [falling, single point] |
| C=CCn1c(=O)c2ccccc2n2c(SCC(=O)Nc3sc(C(=O)N(CC)CC)c(C)c3C(=O)OCC)nnc12 | inconclusive: 5.8 µM [falling, partial curve, poor fit] |
| Cc1cccc(/C(N)=N/OC(=O)N2CCOCC2)c1 | inconclusive: 13 µM [falling, partial curve, poor fit] |
| Cc1ccc(/C(N)=N/OC(=O)c2ccc3ccccc3c2)cc1 | inconclusive: 29.1 µM [falling, partial curve, poor fit] |

Two records drawn at random from those above:

| Compound | Potency |
| --- | --- |
| Cc1cc(C)n2nc(C(=O)OCC(=O)c3c[nH]c4ccccc34)nc2n1 | inconclusive: 6.51 µM [activator, partial curve, poor fit] |
| CC1C(C)N(C(=O)CCl)c2ccccc2N1C(=O)CCl (centres undefined) | inconclusive: 14.6 µM [falling, partial curve, poor fit] |

Next part:

| Compound | Potency |
| --- | --- |
| COc1ccc(/C=N/n2cnc3c([nH]c4ccc(F)cc43)c2=O)cc1CN1CCCC1 | inactive |
| CC(=O)N1c2ccc(S(=O)(=O)NCCC(=O)NCCc3cccc(C)c3)cc2CC1C (centres undefined) | inactive |
| COc1cccc(CCN2C(=O)C(=O)N([C@@H](CNCc3ccccc3)Cc3ccccc3F)C[C@@H]2C(C)(C)C)c1 | inconclusive: 32.6 µM [falling, partial curve, poor fit] |
| Cc1nc([N+](=O)[O-])c(Br)n1Cc1ccc(Cl)c(Cl)c1 | inconclusive: 29.1 µM [falling, partial curve, poor fit] |
| CCCCS(=O)(=O)c1oc(-c2cccs2)nc1S(=O)(=O)c1ccccc1 | inconclusive: 29.1 µM [falling, single point] |
| COc1ccc(C(=O)Nc2ccc(-c3ccc(C)o3)cc2)cc1S(=O)(=O)N1CCOCC1 | inconclusive: 18.4 µM [falling, single point] |
| CN(CC(=O)Nc1ccc(Cl)cc1)C(=O)c1cc(-c2cccs2)nn1-c1ccccc1 | inconclusive: 29.1 µM [falling, single point] |
| Cc1cc(NC(=O)CCC(=O)N(c2cccnc2)C(C(=O)NC2CCCC2)c2ccccc2F)no1 (centres undefined) | inactive |
| CCOC(=O)/C(=C\c1cccnc1)C(=O)c1cc(C(C)=O)c(Nc2ccccc2)s1 | inconclusive: 16.4 µM [falling, single point] |
| O=C(O)c1ccc(CN(c2ccccn2)S(=O)(=O)c2ccccc2)cc1 | inactive |
| c1ccc(N=Nc2cn[nH]c2-c2ccco2)cc1 | inactive |
| CN1CCc2nc(SCc3ccc(C(C)(C)C)cc3)c(C#N)cc2C1 | inconclusive: 20.6 µM [falling, partial curve, poor fit] |
| CCOC(=O)c1cnc(SCC(=O)Nc2sc(C)c(C)c2C#N)nc1N | inconclusive: 23.1 µM [falling, single point] |
| O=C(Nc1cccc(S(=O)(=O)C(F)F)c1)c1ccc(S(=O)(=O)N2CCCC2)cc1 | inconclusive: 18.4 µM [falling, single point] |
| Cc1cc(Nc2nnnn2-c2ccccc2)n(-c2ccccc2)n1 | inconclusive: 16.4 µM [falling, partial curve, poor fit] |
| CCOC(=O)c1sc(NC(=O)c2cc(-c3ccccc3)nc3ccccc23)c(C#N)c1C | inconclusive: 7.31 µM [falling, partial curve, poor fit] |
| CC1CN(CCCCOc2ccc(C(C)C)cc2)CC(C)O1 (centres undefined) | inconclusive: 29.1 µM [falling, single point] |
| C=CCNC(=O)c1cc(-c2ccc3c(c2)OCO3)on1 | inconclusive: 29.1 µM [falling, partial curve, poor fit] |
| Cc1ccccc1/C=N/Nc1ccnc2cc(Cl)ccc12 | inconclusive: 20.6 µM [falling, single point] |
| CCCC1=Nc2cc(C(=O)NC3CCCC3)ccc2Sc2ccc(C)cc21 | inactive |
| COc1cccc2c1cc1c(=O)n(CC(=O)N3CCN(c4cccc(C)c4)C(C)C3)nc(C)n12 (centres undefined) | inactive |
| O=c1oc2ccccc2cc1-c1nc2c(s1)CCc1ccccc1-2 | inconclusive: 14.6 µM [activator, partial curve] and inconclusive: 14.6 µM [activator, partial curve, poor fit] |

| Compound | Potency |
| --- | --- |
| O=S(Cc1ccc(Br)cc1)Cc1nnc(SCc2c(F)cccc2Cl)n1-c1ccccc1 (centres undefined) | inconclusive: 29.1 µM [falling, single point] |
| CCC(NC(=O)c1cc(COc2ccc(F)cc2Cl)on1)c1ccncc1 (centres undefined) | inconclusive: 18.4 µM [falling, single point] |
| O=C(/C=C/c1ccc(O)c(O)c1)NC(=O)c1ccccc1O | inconclusive: 29.1 µM [falling, single point] |
| O=C(CSc1nnc(-c2ccncc2)n1Cc1ccccc1)Nc1nccs1 | inconclusive: 0.58 µM [activator, partial curve, poor fit] |
| CC(C)(C)OC(=O)NCCCCCNC(=O)c1nc[nH]c1C(=O)NCC(=O)OCc1ccccc1 | inactive |
| O=C(COc1cccnc1[N+](=O)[O-])Nc1ccc(F)cc1 | inconclusive: 5.8 µM [falling, single point] |
| CCOC(=O)c1ccc(NS(=O)(=O)c2ccc3c(c2)n(C)c(=O)n3C)cc1 | inactive |
| CN1C(=O)N(C)c2ccc(C=O)c3cccc1c23 | inconclusive: 29.1 µM [activator, single point] |
| C=C1CCN(C(Cc2ccccc2)C(=O)NC2CCN(Cc3ccccc3)CC2)S(=O)(=O)c2ccccc21 (centres undefined) | inactive |
| CCn1c2ccccc2c2nnc(SCC(=O)c3c(N)n(C)c(=O)n(C)c3=O)nc21 | inconclusive: 16.4 µM [falling, partial curve, poor fit] |
| COC(=O)c1ccc(N=C2S/C(=C\c3cc(C)n(-c4cccnc4)c3C)C(=O)N2C)cc1 | inconclusive: 29.1 µM [falling, single point] |
| CN=Cc1nc(-c2ccccc2)oc1O | inconclusive: 4.61 µM [activator, partial curve, poor fit] |
| COc1ccccc1/C=C/C(=O)c1cc(Br)ccc1OC(=O)c1ccco1 | inconclusive: 25.9 µM [falling, single point] |
| N#Cc1ccsc1NC(=O)CSc1nncs1 | inactive |
| Cc1nn(-c2ccc(N3CCCC3)nn2)c(C)c1CCC(=O)Nc1ccc(F)cc1F | inactive |
| CNC(=O)/C(C#N)=C/c1c(N2CCN(c3cccc(Cl)c3)CC2)nc2c(C)cccn2c1=O | inconclusive: 29.1 µM [falling, partial curve, poor fit] |
| CCOC(=O)C(=NCCCN(C)C)NNc1ccc(Br)cc1 | inconclusive: 18.4 µM [activator, single point] |
| Cc1ccc(NC(=S)c2ccccc2)cc1 | inactive |
| C=CCN(CC=C)Cc1c(C)[nH]c2ccc(C(=O)OCC)cc2c1=O | inactive |
| CCN(CC(=O)Nc1ccccc1C(=O)OC)S(=O)(=O)c1ccccc1 | inconclusive: 25.9 µM [activator, partial curve, poor fit] |
